# Some of the results follow.
# Sequences of proteins named here, by UniProt entry; tags and fusion partners are left off. A change or cut given only in a name is not applied to a line headed by its entry.
# UniProt Q8IV48: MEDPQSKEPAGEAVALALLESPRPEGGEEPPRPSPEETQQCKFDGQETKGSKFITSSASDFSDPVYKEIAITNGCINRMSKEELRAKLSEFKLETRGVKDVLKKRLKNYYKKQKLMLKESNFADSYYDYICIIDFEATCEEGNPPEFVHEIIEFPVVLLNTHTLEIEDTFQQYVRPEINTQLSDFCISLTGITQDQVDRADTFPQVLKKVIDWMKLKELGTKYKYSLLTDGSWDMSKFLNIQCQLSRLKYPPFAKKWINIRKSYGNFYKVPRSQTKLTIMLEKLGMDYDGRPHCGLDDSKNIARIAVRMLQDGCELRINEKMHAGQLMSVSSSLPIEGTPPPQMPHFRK
# UniProt Q0PNE2: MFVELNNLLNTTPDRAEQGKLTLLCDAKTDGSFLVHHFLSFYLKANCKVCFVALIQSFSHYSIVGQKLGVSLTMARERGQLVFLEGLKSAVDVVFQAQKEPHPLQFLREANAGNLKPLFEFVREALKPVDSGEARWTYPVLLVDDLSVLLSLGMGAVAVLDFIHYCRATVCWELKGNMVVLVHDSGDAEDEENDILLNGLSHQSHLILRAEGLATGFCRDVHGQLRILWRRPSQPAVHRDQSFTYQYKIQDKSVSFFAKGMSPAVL
# UniProt Q13541: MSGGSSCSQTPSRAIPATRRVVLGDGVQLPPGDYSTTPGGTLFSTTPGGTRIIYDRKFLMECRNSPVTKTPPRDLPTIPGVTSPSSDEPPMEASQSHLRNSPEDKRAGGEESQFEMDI
# UniProt P05198, whole entry, looked up: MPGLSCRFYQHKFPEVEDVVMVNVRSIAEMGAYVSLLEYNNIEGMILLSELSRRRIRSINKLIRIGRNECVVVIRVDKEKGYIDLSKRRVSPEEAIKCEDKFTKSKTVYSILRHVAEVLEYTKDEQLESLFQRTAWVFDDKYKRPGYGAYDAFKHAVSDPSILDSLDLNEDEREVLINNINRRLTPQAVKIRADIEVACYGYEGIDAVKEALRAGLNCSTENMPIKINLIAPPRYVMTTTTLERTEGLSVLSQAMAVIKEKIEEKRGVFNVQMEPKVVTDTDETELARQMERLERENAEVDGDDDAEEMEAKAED
# UniProt Q9UHY7: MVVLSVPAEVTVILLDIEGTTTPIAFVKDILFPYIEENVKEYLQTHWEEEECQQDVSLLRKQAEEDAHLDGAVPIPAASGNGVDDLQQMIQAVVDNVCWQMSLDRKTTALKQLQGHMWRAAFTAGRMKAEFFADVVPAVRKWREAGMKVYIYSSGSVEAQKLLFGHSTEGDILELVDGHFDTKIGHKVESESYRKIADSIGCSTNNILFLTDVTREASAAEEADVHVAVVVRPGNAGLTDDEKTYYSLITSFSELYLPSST
# UniProt Q7L5Y1: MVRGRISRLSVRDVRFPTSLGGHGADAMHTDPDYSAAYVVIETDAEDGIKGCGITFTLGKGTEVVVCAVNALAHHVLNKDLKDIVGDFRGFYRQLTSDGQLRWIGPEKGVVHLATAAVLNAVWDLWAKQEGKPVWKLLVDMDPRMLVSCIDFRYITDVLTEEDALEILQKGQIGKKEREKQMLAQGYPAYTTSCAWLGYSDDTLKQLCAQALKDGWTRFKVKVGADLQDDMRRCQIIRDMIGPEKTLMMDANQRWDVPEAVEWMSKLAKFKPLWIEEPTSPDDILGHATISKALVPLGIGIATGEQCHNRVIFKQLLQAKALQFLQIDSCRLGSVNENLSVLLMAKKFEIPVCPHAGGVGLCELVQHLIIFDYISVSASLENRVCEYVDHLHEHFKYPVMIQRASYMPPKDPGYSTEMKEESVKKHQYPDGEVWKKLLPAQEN
# UniProt Q9GZV4: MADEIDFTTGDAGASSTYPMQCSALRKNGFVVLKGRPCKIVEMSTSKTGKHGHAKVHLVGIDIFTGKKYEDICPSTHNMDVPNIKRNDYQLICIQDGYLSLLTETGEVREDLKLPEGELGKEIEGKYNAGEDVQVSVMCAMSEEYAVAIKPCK
# UniProt Q53HC9: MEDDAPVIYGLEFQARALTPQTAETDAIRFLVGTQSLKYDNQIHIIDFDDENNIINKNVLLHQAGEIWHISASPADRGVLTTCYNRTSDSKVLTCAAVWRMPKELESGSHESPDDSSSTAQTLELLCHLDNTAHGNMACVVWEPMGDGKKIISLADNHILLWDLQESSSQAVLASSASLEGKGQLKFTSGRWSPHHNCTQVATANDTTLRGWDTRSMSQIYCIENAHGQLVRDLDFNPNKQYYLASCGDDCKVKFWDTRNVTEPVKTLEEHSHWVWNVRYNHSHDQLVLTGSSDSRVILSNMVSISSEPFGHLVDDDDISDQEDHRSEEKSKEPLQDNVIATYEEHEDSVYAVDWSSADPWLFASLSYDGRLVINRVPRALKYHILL
# UniProt Q9BV81: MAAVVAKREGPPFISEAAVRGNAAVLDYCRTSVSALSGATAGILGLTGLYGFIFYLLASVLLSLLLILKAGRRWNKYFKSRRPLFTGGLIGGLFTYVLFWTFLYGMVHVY
# UniProt P06730, whole entry, looked up: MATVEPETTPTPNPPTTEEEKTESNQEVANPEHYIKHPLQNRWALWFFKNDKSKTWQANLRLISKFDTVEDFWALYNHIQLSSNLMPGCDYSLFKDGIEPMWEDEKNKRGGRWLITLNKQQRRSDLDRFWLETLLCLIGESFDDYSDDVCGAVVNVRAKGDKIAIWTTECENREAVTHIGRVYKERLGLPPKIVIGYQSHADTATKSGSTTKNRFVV
# UniProt P55884, whole entry, looked up: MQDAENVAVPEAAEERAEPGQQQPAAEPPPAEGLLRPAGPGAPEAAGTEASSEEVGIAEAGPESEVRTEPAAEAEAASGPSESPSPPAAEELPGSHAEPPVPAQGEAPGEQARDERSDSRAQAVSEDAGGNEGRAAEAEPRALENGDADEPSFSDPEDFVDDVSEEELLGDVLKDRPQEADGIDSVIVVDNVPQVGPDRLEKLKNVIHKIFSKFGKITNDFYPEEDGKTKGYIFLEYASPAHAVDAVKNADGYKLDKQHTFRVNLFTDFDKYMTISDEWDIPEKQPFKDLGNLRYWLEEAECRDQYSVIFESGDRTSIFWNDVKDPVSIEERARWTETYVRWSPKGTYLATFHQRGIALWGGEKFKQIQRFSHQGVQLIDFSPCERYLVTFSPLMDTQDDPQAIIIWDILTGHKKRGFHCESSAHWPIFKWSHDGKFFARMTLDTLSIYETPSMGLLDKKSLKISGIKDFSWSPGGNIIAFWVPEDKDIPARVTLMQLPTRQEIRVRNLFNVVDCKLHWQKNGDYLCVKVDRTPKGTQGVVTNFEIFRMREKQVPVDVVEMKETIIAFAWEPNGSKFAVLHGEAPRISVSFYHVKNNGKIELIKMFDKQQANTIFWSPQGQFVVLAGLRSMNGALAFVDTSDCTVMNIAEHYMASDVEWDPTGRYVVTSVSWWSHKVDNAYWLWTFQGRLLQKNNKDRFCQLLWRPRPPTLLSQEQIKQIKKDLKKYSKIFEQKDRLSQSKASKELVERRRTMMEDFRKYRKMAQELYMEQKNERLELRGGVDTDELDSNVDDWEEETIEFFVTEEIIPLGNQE
# UniProt Q9Y6I3: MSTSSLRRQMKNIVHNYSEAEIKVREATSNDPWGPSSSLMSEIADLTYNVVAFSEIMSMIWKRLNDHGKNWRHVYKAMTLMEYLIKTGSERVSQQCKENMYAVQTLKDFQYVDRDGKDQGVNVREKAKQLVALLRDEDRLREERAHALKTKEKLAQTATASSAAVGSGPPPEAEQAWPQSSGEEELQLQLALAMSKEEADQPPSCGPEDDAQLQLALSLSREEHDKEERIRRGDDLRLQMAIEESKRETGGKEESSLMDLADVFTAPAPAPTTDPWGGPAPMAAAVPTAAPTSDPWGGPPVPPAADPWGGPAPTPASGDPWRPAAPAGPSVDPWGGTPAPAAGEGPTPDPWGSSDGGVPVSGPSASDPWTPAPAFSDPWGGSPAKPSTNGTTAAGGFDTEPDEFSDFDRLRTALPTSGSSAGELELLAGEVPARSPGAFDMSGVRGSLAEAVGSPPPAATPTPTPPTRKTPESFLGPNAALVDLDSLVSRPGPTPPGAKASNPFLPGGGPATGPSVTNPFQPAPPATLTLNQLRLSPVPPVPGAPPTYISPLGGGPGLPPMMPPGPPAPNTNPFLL
# UniProt Q9H9T3: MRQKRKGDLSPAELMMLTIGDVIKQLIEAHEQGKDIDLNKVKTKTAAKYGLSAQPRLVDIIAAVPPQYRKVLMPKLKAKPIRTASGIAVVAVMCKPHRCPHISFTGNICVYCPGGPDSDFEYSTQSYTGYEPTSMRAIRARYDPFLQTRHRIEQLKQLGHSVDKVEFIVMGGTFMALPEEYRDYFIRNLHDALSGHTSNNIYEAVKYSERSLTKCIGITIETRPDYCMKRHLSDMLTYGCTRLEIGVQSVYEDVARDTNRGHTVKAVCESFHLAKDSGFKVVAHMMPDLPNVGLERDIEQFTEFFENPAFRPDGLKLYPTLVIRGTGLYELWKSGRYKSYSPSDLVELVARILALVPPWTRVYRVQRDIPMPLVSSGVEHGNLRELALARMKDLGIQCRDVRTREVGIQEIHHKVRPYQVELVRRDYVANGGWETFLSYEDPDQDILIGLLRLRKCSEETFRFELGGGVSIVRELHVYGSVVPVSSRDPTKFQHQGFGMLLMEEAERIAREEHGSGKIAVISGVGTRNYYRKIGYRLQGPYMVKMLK
# UniProt P84090, whole entry, looked up: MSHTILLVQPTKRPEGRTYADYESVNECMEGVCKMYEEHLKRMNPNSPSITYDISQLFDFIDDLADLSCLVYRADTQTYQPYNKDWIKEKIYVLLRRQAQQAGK
# UniProt O95208: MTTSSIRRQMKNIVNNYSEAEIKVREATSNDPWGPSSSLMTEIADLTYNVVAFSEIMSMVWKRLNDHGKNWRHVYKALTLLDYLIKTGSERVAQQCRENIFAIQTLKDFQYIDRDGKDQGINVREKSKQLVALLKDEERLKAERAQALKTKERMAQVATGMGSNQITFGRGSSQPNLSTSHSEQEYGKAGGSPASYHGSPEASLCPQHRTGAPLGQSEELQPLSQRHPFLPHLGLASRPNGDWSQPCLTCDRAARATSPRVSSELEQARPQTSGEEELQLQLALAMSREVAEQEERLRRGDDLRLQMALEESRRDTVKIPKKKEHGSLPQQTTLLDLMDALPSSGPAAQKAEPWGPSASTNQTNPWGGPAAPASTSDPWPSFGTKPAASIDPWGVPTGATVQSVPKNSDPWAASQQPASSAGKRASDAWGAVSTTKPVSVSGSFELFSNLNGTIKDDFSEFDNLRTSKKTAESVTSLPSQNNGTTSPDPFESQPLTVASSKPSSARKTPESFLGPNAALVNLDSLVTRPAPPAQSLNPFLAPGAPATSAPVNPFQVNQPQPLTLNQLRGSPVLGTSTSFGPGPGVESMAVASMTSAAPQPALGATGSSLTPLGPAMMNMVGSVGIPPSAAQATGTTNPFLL
# UniProt P0DP91, whole entry, looked up: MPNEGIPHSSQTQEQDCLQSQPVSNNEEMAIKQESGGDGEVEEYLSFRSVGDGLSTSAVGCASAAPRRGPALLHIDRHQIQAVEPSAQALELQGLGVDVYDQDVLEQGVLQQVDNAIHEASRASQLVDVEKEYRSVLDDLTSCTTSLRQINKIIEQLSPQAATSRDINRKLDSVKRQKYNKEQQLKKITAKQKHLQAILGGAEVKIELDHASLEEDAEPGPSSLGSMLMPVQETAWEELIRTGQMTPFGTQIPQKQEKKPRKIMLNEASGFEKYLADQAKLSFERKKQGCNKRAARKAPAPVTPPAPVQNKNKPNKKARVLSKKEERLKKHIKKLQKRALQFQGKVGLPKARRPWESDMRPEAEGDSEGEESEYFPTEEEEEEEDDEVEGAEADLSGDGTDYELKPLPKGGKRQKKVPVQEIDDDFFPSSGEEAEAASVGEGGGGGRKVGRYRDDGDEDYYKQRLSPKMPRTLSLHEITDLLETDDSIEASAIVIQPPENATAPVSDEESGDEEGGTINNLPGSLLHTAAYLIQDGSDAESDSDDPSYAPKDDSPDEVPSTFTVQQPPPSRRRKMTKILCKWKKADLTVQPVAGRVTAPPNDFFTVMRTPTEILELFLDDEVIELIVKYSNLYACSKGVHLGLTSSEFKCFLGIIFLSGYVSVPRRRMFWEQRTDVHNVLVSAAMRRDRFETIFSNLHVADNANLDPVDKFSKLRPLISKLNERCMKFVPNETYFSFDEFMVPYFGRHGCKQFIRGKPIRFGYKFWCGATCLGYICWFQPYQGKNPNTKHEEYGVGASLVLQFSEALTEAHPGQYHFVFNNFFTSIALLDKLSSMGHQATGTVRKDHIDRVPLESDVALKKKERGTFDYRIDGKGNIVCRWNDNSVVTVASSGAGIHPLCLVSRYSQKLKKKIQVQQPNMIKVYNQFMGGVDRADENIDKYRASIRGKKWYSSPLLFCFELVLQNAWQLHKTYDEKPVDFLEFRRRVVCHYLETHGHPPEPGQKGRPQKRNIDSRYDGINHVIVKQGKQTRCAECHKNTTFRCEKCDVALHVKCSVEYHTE
# Key:
# Assay in all cases: log2 fold change, soluble protein after heating vs DMSO (PISA); higher = thermal stabilisation; K562 lysate, 10 uM; active = over 0.2 and 3.5 SD of the protein, either way, in both replicates (recomputed)
# [1] = compound: Cc1cn(-c2cc(NC(=O)c3ccc(C)c(Nc4nccc(-c5cccnc5)n4)c3)cc(C(F)(F)F)c2)cn1 [nilotinib]
# Summary of the method: (§1)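 A 30 min treatment with 10 μM compound was applied to crude K562 extract at 1 mg/mL protein in PBS pH 7.4 with 1 mM MgCl2. Heating for 3 min spanned 48°C-58°C, after which aliquots were pooled, adjusted to 0.5% NP-40 at 4°C and spun at 21,000xg for 90 min. TMTpro 16plex LC-MS/MS of the supernatant, with channel sums equalised, gave values recorded as log-two fold change in thermal stability against solvent controls, from duplicates.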
# [2] = compound: Cc1nc(Nc2n[nH]c3c2CN(C(=O)N[C@H](CN(C)C)c2ccccc2)C3(C)C)c2sccc2n1
# Summary of the method: as §1
# [3] = compound: Cc1nc(Nc2ncc(C(=O)Nc3c(C)cccc3Cl)s2)cc(N2CCN(CCO)CC2)n1 [dasatinib]
# Summary of the method: as §1
# [4] = compound: Cc1ncc(-c2ccnc(Nc3ccc(S(C)(=O)=O)cc3)n2)n1C(C)C
# Summary of the method: as §1
# [5] = compound: Cn1cc(-c2ccc3c(c2)CCN3C(=O)Cc2cccc(C(F)(F)F)c2)c2c(N)ncnc21
# Summary of the method: as §1
# [6] = compound: Cn1cc(CNCC2CCN(c3ncc(C(=O)NO)cn3)CC2)c2ccccc21 [quisinostat]
# Summary of the method: as §1
# [7] = compound: Cn1cncc1[C@@](N)(c1ccc(Cl)cc1)c1ccc2c(c1)c(-c1cccc(Cl)c1)cc(=O)n2C [tipifarnib]
# Summary of the method: as §1
# [8] = compound: NC(=O)Nc1cc(-c2cccc(F)c2)sc1C(=O)N[C@H]1CCCNC1
# Summary of the method: as §1
# [9] = compound: NC(=O)c1cnc(N[C@@H]2CCCC[C@@H]2N)nc1Nc1cccc(-n2nccn2)c1
# Summary of the method: as §1
# [10] = compound: NC1(c2ccc(-c3nc4ccn5c(=O)[nH]nc5c4cc3-c3ccccc3)cc2)CCC1
# Summary of the method: as §1
# [11] = compound: NCC(=O)Nc1ccc(-n2nc(C(F)(F)F)cc2-c2ccc3c(ccc4ccccc43)c2)cc1
# Summary of the method: as §1
# [12] = compound: O=C(CCCCCCC(=O)Nc1ccccc1)NO [vorinostat]
# Summary of the method: as §1
# [13] = compound: O=C(O)c1ccc2c(c1)nc(Nc1cccc(Cl)c1)c1ccncc12 [silmitasertib]
# Summary of the method: as §1
# [14] = compound: O=C1NC(=O)C(c2cnc3ccccn23)=C1c1cn2c3c(cc(F)cc13)CN(C(=O)N1CCCCC1)CC2
# Summary of the method: as §1
# [15] = compound: c1cn2cc(-c3ccc4cn[nH]c4c3)nc(Nc3ccc(N4CCOCC4)cc3)c2n1 [entospletinib]
# Summary of the method: as §1
Target,log2 fold change [1],log2 fold change [2],log2 fold change [3],log2 fold change [4],log2 fold change [5],log2 fold change [6],log2 fold change [7],log2 fold change [8],log2 fold change [9],log2 fold change [10],log2 fold change [11],log2 fold change [12],log2 fold change [13],log2 fold change [14],log2 fold change [15]
ERI1 (UniProt Q8IV48),inactive: 0.004,inactive: -0.008,inactive: -0.012,inactive: 0.035,inactive: 0.041,inactive: -0.019,inactive: 0.043,inactive: 0.08,inactive: -0.019,inactive: 0.058,inactive: -0.001,active: -0.221,inactive: -0.035,inactive: -0.017,inactive: 0.041
ELP6 (UniProt Q0PNE2),inactive: 0.001,inactive: 0.032,inactive: -0.004,inactive: -0.008,inactive: -0.051,inactive: -0.102,inactive: -0.007,inactive: 0.007,inactive: 0.007,inactive: 0.016,inactive: 0.036,inactive: -0.111,inactive: -0.014,inactive: -0.01,inactive: -0.019
EIF4EBP1 (UniProt Q13541),inactive: 0.02,inactive: 0.065,inactive: 0.005,inactive: 0.081,inactive: -0.089,inactive: -0.023,inactive: 0.083,inactive: -0.02,inactive: -0.026,inactive: 0.023,inactive: 0.065,inactive: 0.079,inactive: 0.012,inactive: -0.001,inactive: -0.107
EIF2S1 (UniProt P05198),inactive: 0.001,inactive: -0.02,inactive: -0.005,inactive: 0.004,inactive: 0,inactive: 0.005,inactive: 0.017,inactive: -0.036,inactive: 0.01,inactive: 0.018,inactive: 0.013,inactive: 0.106,inactive: 0.004,inactive: -0.013,inactive: 0.007
ENOPH1 (UniProt Q9UHY7),inactive: -0.03,inactive: 0.011,inactive: 0.006,inactive: 0.157,inactive: 0.003,inactive: 0.02,inactive: -0.02,inactive: 0.01,inactive: -0.016,inactive: -0.02,inactive: 0.036,inactive: 0.131,inactive: -0.013,inactive: -0.006,inactive: -0.006
ENOSF1 (UniProt Q7L5Y1),inactive: 0.005,inactive: 0.011,inactive: 0,inactive: 0.095,inactive: 0.015,inactive: -0.003,inactive: -0.02,inactive: 0.033,inactive: 0.017,inactive: -0.014,inactive: -0.005,inactive: 0.115,inactive: 0.005,inactive: 0.029,inactive: 0.018
EIF5A2 (UniProt Q9GZV4),inactive: 0.077,inactive: 0.034,inactive: -0.014,inactive: -0.005,inactive: 0,inactive: -0.251,inactive: 0.009,inactive: -0.002,inactive: 0.007,inactive: 0.028,inactive: 0.115,inactive: -0.107,inactive: 0.015,inactive: -0.088,inactive: 0.011
EIPR1 (UniProt Q53HC9),inactive: 0.078,inactive: -0.043,inactive: -0.048,inactive: 0.02,inactive: 0.042,inactive: 0.021,inactive: -0.001,inactive: -0.013,inactive: 0.027,inactive: -0.013,inactive: 0.001,inactive: 0.078,inactive: 0.005,inactive: -0.031,inactive: -0.048
EMC6 (UniProt Q9BV81),inactive: 0.233,inactive: -0.02,inactive: 0.003,inactive: -0.162,inactive: -0.033,inactive: 0.038,inactive: -0.31,inactive: -0.076,inactive: 0.031,inactive: -0.082,inactive: 0.032,inactive: 0.109,inactive: -0.083,inactive: 0.08,inactive: -0.073
EIF4E isoform 2 (UniProt P06730),inactive: 0.076,inactive: -0.003,inactive: -0.073,inactive: -0.001,inactive: 0.027,inactive: 0.037,inactive: 0.016,inactive: 0.017,inactive: 0.013,inactive: 0.053,inactive: -0.001,inactive: -0.057,inactive: 0.089,inactive: -0.006,inactive: 0.008
ERGIC3 isoform 3 (UniProt Q9Y282),inactive: -0.044,inactive: 0.012,inactive: -0.009,inactive: -0.06,inactive: 0.064,inactive: -0.075,inactive: -0.099,inactive: -0.019,inactive: 0.033,inactive: -0.011,inactive: -0.035,inactive: 0.142,inactive: 0.055,inactive: -0.006,inactive: -0.021
EPS15 (UniProt P42566),inactive: -0.014,inactive: 0.01,inactive: 0.037,inactive: -0.002,inactive: 0.028,inactive: 0.036,inactive: -0.014,inactive: -0.04,inactive: -0.022,inactive: -0.003,inactive: 0.007,inactive: 0.105,inactive: -0.013,inactive: -0.031,inactive: -0.012
"ENO1, A0A2R8YEM5",inactive: -0.021,inactive: -0.017,inactive: -0.013,inactive: 0.002,inactive: -0.021,inactive: -0.005,inactive: 0.053,inactive: -0.026,inactive: 0.002,inactive: -0.008,inactive: -0.032,inactive: 0.119,inactive: -0.005,inactive: 0.017,inactive: 0.04
EIF3B isoform 2 (UniProt P55884),inactive: -0.008,inactive: 0.004,inactive: -0.008,inactive: -0.012,inactive: 0.009,inactive: -0.058,inactive: 0.004,inactive: 0.003,inactive: -0.002,inactive: -0.018,inactive: -0.005,inactive: -0.017,inactive: 0.013,inactive: -0.025,inactive: 0.011
EPN1 isoform 3 (UniProt Q9Y6I3),inactive: 0.173,inactive: 0.067,inactive: -0.113,inactive: -0.253,inactive: -0.154,inactive: 0.009,inactive: -0.273,inactive: -0.23,inactive: 0.041,inactive: 0,–,inactive: 0.36,inactive: -0.157,inactive: -0.083,–
ELP3 (UniProt Q9H9T3),inactive: -0.002,inactive: -0.008,inactive: -0.009,inactive: -0.019,inactive: 0.018,inactive: -0.01,inactive: -0.002,inactive: 0.026,inactive: -0.004,inactive: -0.003,inactive: -0.003,inactive: 0.015,inactive: -0.017,inactive: 0.001,inactive: 0.012
ERH (UniProt P84090),inactive: 0.009,inactive: -0.022,inactive: 0.033,inactive: -0.017,inactive: 0.047,inactive: -0.007,inactive: 0.018,inactive: -0.067,inactive: -0.005,inactive: 0.029,inactive: -0.049,inactive: 0.081,inactive: -0.053,inactive: 0.021,inactive: -0.024
EPB41 isoform 4 (UniProt P11171),inactive: 0.124,inactive: 0.044,–,inactive: -0.165,–,inactive: -0.077,inactive: 0.036,inactive: 0.053,inactive: 0.089,inactive: -0.096,–,inactive: 0.071,inactive: 0.101,inactive: -0.085,–
EPN2 (UniProt O95208),inactive: -0.001,inactive: 0.01,inactive: -0.011,inactive: 0.017,inactive: 0.054,inactive: -0.016,inactive: -0.07,inactive: 0.021,inactive: 0.01,inactive: -0.016,inactive: -0.005,inactive: 0.156,inactive: 0.02,inactive: -0.001,inactive: 0.012
EPRS (UniProt P07814),inactive: 0.005,inactive: -0.002,inactive: -0.039,inactive: -0.01,inactive: 0.039,inactive: 0,inactive: 0.011,inactive: 0.039,inactive: 0.002,inactive: -0.026,inactive: -0.01,active: -0.365,inactive: 0.037,inactive: 0.009,inactive: 0.021
ERCC6 (UniProt P0DP91),inactive: 0,inactive: 0.02,inactive: -0.093,inactive: -0.036,inactive: 0.048,–,inactive: -0.023,–,–,inactive: 0.193,–,inactive: -0.153,inactive: -0.227,–,inactive: 0.078

# Reformatted with bars between the fields: part of the list above.
Target | log2 fold change [1] | log2 fold change [2] | log2 fold change [3] | log2 fold change [4] | log2 fold change [5] | log2 fold change [6] | log2 fold change [7] | log2 fold change [8] | log2 fold change [9] | log2 fold change [10] | log2 fold change [11] | log2 fold change [12] | log2 fold change [13] | log2 fold change [14] | log2 fold change [15]
ERI1 (UniProt Q8IV48) | inactive: 0.004 | inactive: -0.008 | inactive: -0.012 | inactive: 0.035 | inactive: 0.041 | inactive: -0.019 | inactive: 0.043 | inactive: 0.08 | inactive: -0.019 | inactive: 0.058 | inactive: -0.001 | active: -0.221 | inactive: -0.035 | inactive: -0.017 | inactive: 0.041
EMC6 (UniProt Q9BV81) | inactive: 0.233 | inactive: -0.02 | inactive: 0.003 | inactive: -0.162 | inactive: -0.033 | inactive: 0.038 | inactive: -0.31 | inactive: -0.076 | inactive: 0.031 | inactive: -0.082 | inactive: 0.032 | inactive: 0.109 | inactive: -0.083 | inactive: 0.08 | inactive: -0.073
ENO1, A0A2R8YEM5 | inactive: -0.021 | inactive: -0.017 | inactive: -0.013 | inactive: 0.002 | inactive: -0.021 | inactive: -0.005 | inactive: 0.053 | inactive: -0.026 | inactive: 0.002 | inactive: -0.008 | inactive: -0.032 | inactive: 0.119 | inactive: -0.005 | inactive: 0.017 | inactive: 0.04
EIF3B isoform 2 (UniProt P55884) | inactive: -0.008 | inactive: 0.004 | inactive: -0.008 | inactive: -0.012 | inactive: 0.009 | inactive: -0.058 | inactive: 0.004 | inactive: 0.003 | inactive: -0.002 | inactive: -0.018 | inactive: -0.005 | inactive: -0.017 | inactive: 0.013 | inactive: -0.025 | inactive: 0.011

# Source: the supplement of paper PMC10849652
